Data published in PubChem BioAssay AID1347423 (Functional Genomics Laboratory (NCATS/FGL), 2020).
The campaign covered roughly 52,000 sequences. About 210 (0.4%) were called active.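 How the source made its calls: active means gene whose silencing raises cell survival under the drug, median off-target-corrected z-score across its silencing RNAs 2 or more; inactive means the rest.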 Some of the results follow.

test: Resistance to Poly (ADP-Ribose) Polymerase inhibitor: Gene Identification via Genome-wide siRNA Screen; conditions: mouse BRCA2 R2336H ES cells, olaparib, CellTiter-Glo viability; stronger effect = higher value
Outline: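 Mouse BRCA2 R2336H ES cells were reverse-transfected with siRNA (20 nM final), treated at 48 h with 500 nM olaparib, and read by CellTiter-Glo after 72 h. Scores: MAD-based z per siRNA, median per gene, seed off-target correction.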

With “GGUUUUGGAUACCAAAAACTT against 1200020A08Rik” as the sequence, how does the z-score read?
The z-score was inactive: 0.862.

For CCAACAUGAAGCUUGUCCATT against Zfp259, which z-score is on record?
The z-score was inactive: 0.217.

For GGAGACUGUCAUGGCUGUGTT against Olfr397, which z-score is on record?
The z-score was inactive: -0.0371.

With GCUAAUUCCCUGAAAGAUGTT against Rnf13 as the sequence, how does the z-score read?
Its z-score is inactive: -0.807.

With GCAUAGCUCAUCAUUCGGCTT against Wfdc5 as the sequence, how does the z-score read?
The z-score was inactive: 0.14.

For GGAGAUCCUGGCAAAAUACTT against Rutbc3, which z-score is on record?
Its z-score is inactive: -0.352.

With CACUCAGCUCAAUGACCUGTT against Ifna14 as the sequence, how does the z-score read?
The z-score was inactive: -0.514.

For “CCUCAGAAUAAAUGAAUCCTT against 1810049H13Rik”, which z-score is on record?
The z-score was inactive: 3.26.

For GCCCAGUCAUUCCUACCAATT against Hoxc13, which z-score is on record?
The z-score was inactive: -0.318.

Which z-score does the source give for CCGUCCUCAGUUAUCUCUATT against Sorcs3 here?
Its z-score is inactive: -0.434.

For CCAGAACGGAAGAUGAUCATT against Slc4a1, which z-score is on record?
The z-score was inactive: -0.685.

For “CCAAAUGAAGCUCUGAAGATT against B130008E12Rik”, which z-score is on record?
The z-score was inactive: -0.125.

For GGAGAACUACAGUCUUAUUTT against Slc39a12, which z-score is on record?
Its z-score is inactive: -1.04.

With GGAGGGAAAAGAGAAGAAATT against Rbm10 as the sequence, how does the z-score read?
The z-score was inactive: 1.8.

With GGAUGAUGACUUCCUAGGGTT against Cpne7 as the sequence, how does the z-score read?
The z-score was inactive: 0.407.

With GAAAAGAAUUCCAGAAGAUTT against Sec61g as the sequence, how does the z-score read?
The z-score was inactive: -1.54.

With GCUUUUCAAACACAGUAGATT against Dlx3 as the sequence, how does the z-score read?
Its z-score is inactive: 1.07.

For “GCGAGUGAUUGAGGAUCCCTT against 2610027O18Rik”, which z-score is on record?
Its z-score is inactive: 0.29.

Which z-score does the source give for “CGCUCACUGGUUUUUAAUUTT against E030018N11Rik” here?
The z-score was inactive: 1.42.

For GCCUUUCAAUCCUGAUUAATT against Rgs10, which z-score is on record?
Its z-score is inactive: -0.71.

With “GGAAUUUGGACAAAUUGAATT against A630086M08Rik” as the sequence, how does the z-score read?
Its z-score is inactive: -0.249.

With CGCAGAUGAUUAAGUUGGUTT against Olfr1000 as the sequence, how does the z-score read?
The z-score was inactive: -0.729.

For “GCUACUUAUCUGUUGGAAUTT against C330026N02Rik”, which z-score is on record?
The z-score was inactive: -0.5.

With CCAGGAAUCAGUCUAUACUTT against Lrrc15 as the sequence, how does the z-score read?
Its z-score is inactive: 0.689.

With GCUCGAGGCUUAGAAGACUTT against Hspb3 as the sequence, how does the z-score read?
Its z-score is inactive: -0.609.

For GGUGUACUGAUUUUGAAGATT against Msh3, which z-score is on record?
The z-score was inactive: -0.529.

For GGACAAGUUUGAUGGAUCGTT against Rcor3, which z-score is on record?
Its z-score is inactive: 0.723.

Which z-score does the source give for CCGUUGGAGUCCAACCUAUTT against Ube2a here?
Its z-score is inactive: -0.479.

For GCGCAAGAUUCUCCAGCUUTT against Qars, which z-score is on record?
The z-score was inactive: -2.99.

With GCCGGCUGUAUUCAGUACGTT against Hoxc9 as the sequence, how does the z-score read?
The z-score was inactive: -0.44.

With “GCUUCAACUCUUUUCAGAGTT against F830208F22Rik” as the sequence, how does the z-score read?
The z-score was inactive: 0.196.

For GGAUCAGGACAAUGAACUGTT against Ap1s2, which z-score is on record?
The z-score was inactive: -0.328.

For “GGUUUUUGCCAAACUCUUUTT against D19Wsu162e”, which z-score is on record?
Its z-score is inactive: 1.92.

For GAUUUUCUUUGUUCAUCUCTT against Olfr727, which z-score is on record?
The z-score was inactive: -0.431.

For GGUAUAAACUCUAAAUGCUTT against Tpk1, which z-score is on record?
The z-score was inactive: -0.0512.

For GGACAUGUCCGAAUACUACTT against Tprt, which z-score is on record?
Its z-score is inactive: -0.613.

For “GCCAGGAUACUAAGUGUUUTT against D17Ertd441e”, which z-score is on record?
Its z-score is inactive: 0.673.

Which z-score does the source give for CCAGAGUAAGAGUAAAAGCTT against Mamdc2 here?
The z-score was inactive: 1.32.

With GCCUCUUAAUUUUAAGCUGTT against Gpr82 as the sequence, how does the z-score read?
The z-score was inactive: -0.563.

With GGCCCUGACAGAGGAAAAATT against Impa2 as the sequence, how does the z-score read?
Its z-score is inactive: -0.555.

With CGGGAUAGACAUGAGAGCUTT against Tmem2 as the sequence, how does the z-score read?
Its z-score is inactive: 0.928.

Which z-score does the source give for “GGAUGAAUUUGGAGUUUCUTT against 1700045I19Rik” here?
The z-score was inactive: -0.497.

With GGAACGGAUUCUAUCCAAUTT against Mosg as the sequence, how does the z-score read?
Its z-score is inactive: 0.142.

With GCGUGGCCGUCAAAGAGUATT against Basp1 as the sequence, how does the z-score read?
Its z-score is inactive: -0.394.

Which z-score does the source give for GGACCGCUACUAUUCAGGATT against Myh10 here?
The z-score was inactive: 1.14.

For “GGACCUAAAGAAUUCAUCGTT against 9030205A07”, which z-score is on record?
The z-score was inactive: 0.58.

For GGCACCUGUUAAAAAUGAATT against D8Ertd82e, which z-score is on record?
Its z-score is inactive: 1.95.

For “GGAAAGCUUACAAAUAUGCTT against 1500002I11Rik”, which z-score is on record?
The z-score was inactive: 0.00152.

Which z-score does the source give for CCUUAAACUAGAAUUGUGUTT against Grap2 here?
The z-score was inactive: 1.24.

Which z-score does the source give for GGAUUUUACAGUUUUUGGATT against Pccb here?
Its z-score is inactive: -0.438.

For CCUAGCUGAGGUGAACAACTT against Spr, which z-score is on record?
Its z-score is inactive: 0.543.

With CCUCACAUAUACUGAGCUUTT against Zc3hdc1 as the sequence, how does the z-score read?
Its z-score is inactive: -2.38.
